Data set [1] concerns PTBP1. Description: EMSA. As to conditions: Kd value only in figure; EMSA: 50 mM Tris-HCl pH 7.5 (25 C), 100 mM KCl, 2.5 mM MgCl2, 0.1 mM ZnCl2, 2 mM 2-mercaptoethanol, 0.05 mg/ml BSA, 0.05 mg/ml yeast tRNA, 5% glycerol, 30 C 30 min; recombinant protein; label: 5'-32P.
In data set [2] the test system is PTBP1. As to the kind of experiment: UV crosslinking. As to conditions: 600 nM protein, efficient; EM/nucleosome/UV: 25 mM HEPES pH 7.9, 50 mM KCl, 2 mM MgCl2, 10% glycerol, 1 mM TCEP, 30 C; recombinant protein; label: 5'-32P.

Construct, isoform or probe ends are uncertain for at least one entry.

With “UCUUUCUUCUUUCUUCUUUCUUCUUUCUUCUUUCUUCUUUCU [(UCUUUCU)6]”, the binding result in the data set on PTBP1 [1] and in the data set with PTBP1 [2] was “binds” throughout.

The record behind these values is article PMC12668130.
